Record: PubChem BioAssay AID1159578 (Peter MacCallum Cancer Centre, 2015)
Test: 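siRNA pools altering how lymphatic endothelial cells close a scratch wound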 (primary screen). Cell system: human lymphatic endothelial cells. Reagent: siRNA pool against human genes, 40 nM. Duration: 48 h after transfection. Measured: 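High-content imaging of dye-stained cells in a scratch assay measures filled wound area and nuclei per well; duplicate means given as ratio to mock and robust z-score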. Direction: migration robust z-score: higher = faster migration into the scratch; migration relative to mock: higher = more scratch area covered than mock; nuclei per well: higher = more cells in the well. Active means: 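Migration changed when robust z exceeds 2 or falls below -2 and mean nuclei number is at least 3300; otherwise not called changed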. Meaning of the calls: active = migration changed; inactive = no migration change, or too few cells.
This is a random part of about 18,000 deposited reagents. About 1,030 of all reagents (5.7%) count as active. 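Inactive calls also include pools with fewer than 3300 nuclei, whose migration was not assessed.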 The raw values are shown without normalisation. Entries without a mark were called inactive. Reagent sequences are not shown.

no.	gene	migration robust z-score	migration class with cell-count check	migration relative to mock	nuclei per well, duplicate mean
1	WDR59 (WD repeat domain 59)	1.4	migration z between -2 and 2; enough cells	1.08	4067
2	LGALS1 (galectin 1)	-2.62 (active)	migration z below -2; enough cells	0.3	3640
3	PNPO (pyridoxamine 5'-phosphate oxidase)	-0.13	migration z between -2 and 2; enough cells	0.78	6435
4	SGIP1 (SH3GL interacting endocytic adaptor 1)	2.69 (active)	migration z above 2; enough cells	1.58	7124
5	CPB1 (carboxypeptidase B1)	1.35	migration z between -2 and 2; enough cells	1.06	5400
6	FBXO3 (F-box protein 3)	-0.62	migration z between -2 and 2; enough cells	0.68	5948
7	USP42 (ubiquitin specific peptidase 42)	0.36	migration z between -2 and 2; enough cells	0.88	6034
8	PRKAR2A	-1.53	migration z between -2 and 2; enough cells	0.51	4140
9	SPATA7 (spermatogenesis associated 7)	0.99	migration z between -2 and 2; enough cells	1.15	6978
10	ETFBKMT	-1.12	migration z between -2 and 2; enough cells	0.59	4434
11	SLC34A2	-0.39	migration z between -2 and 2; enough cells	0.73	4766
12	ABCG2 (ATP binding cassette subfamily G member 2 (JR blood group))	-0.13	migration z between -2 and 2; enough cells	0.78	6976
13	CCDC120 (coiled-coil domain containing 120)	-0.57	migration z between -2 and 2; enough cells	0.74	7133
14	ID1 (inhibitor of DNA binding 1)	-0.88	migration z between -2 and 2; enough cells	0.64	5556
15	MAEA (macrophage erythroblast attacher, E3 ubiquitin ligase)	-0.34	migration z between -2 and 2; enough cells	0.8	5460
16	CD200 (CD200 molecule)	-0.12	migration z between -2 and 2; enough cells	0.86	6408
17	ERMN (ermin)	-1.17	migration z between -2 and 2; enough cells	0.58	5055
18	COL8A2 (collagen type VIII alpha 2 chain)	-0.86	migration z between -2 and 2; enough cells	0.66	4938
19	TLL2 (tolloid like 2)	-3.01 (active)	migration z below -2; enough cells	0.22	4245
20	TM2D3 (TM2 domain containing 3)	-0.77	migration z between -2 and 2; enough cells	0.68	6096
21	N4BP2 (NEDD4 binding protein 2)	0.34	migration z between -2 and 2; enough cells	0.87	6484
22	YAE1 (YAE1 maturation factor of ABCE1)	-0.02	migration z between -2 and 2; enough cells	0.88	6777
23	MRM3 (mitochondrial rRNA methyltransferase 3)	0.39	migration z between -2 and 2; enough cells	0.88	6112
24	STOX1 (storkhead box 1)	-1.57	migration z between -2 and 2; enough cells	0.47	4976
25	HIPK2 (homeodomain interacting protein kinase 2)	-0.7	migration z between -2 and 2; enough cells	0.67	4284
26	SIRPB1 (signal regulatory protein beta 1)	-1.85	migration z between -2 and 2; enough cells	0.41	3840
27	TRIM49 (tripartite motif containing 49)	0.21	migration z between -2 and 2; enough cells	0.84	5454
28	POLR3H (RNA polymerase III subunit H)	1.84	migration z between -2 and 2; enough cells	1.16	5844
29	SLITRK4 (SLIT and NTRK like family member 4)	0.16	migration z between -2 and 2; enough cells	0.92	5883
30	HFE (homeostatic iron regulator)	-2.38	under 3300 nuclei; migration not judged	0.34	2814
31	RPL13A (ribosomal protein L13a)	-0.25	migration z between -2 and 2; enough cells	0.82	5066
32	PTPN21 (protein tyrosine phosphatase non-receptor type 21)	0.32	migration z between -2 and 2; enough cells	0.86	5548
33	B4GAT1 (beta-1,4-glucuronyltransferase 1)	-0.18	migration z between -2 and 2; enough cells	0.77	4776
34	RPS17P16 (ribosomal protein S17 pseudogene 16)	0.44	migration z between -2 and 2; enough cells	1	6186
35	RPS8 (ribosomal protein S8)	-1.37	migration z between -2 and 2; enough cells	0.53	4401
36	DCAF11 (DDB1 and CUL4 associated factor 11)	1.19	migration z between -2 and 2; enough cells	1.2	6012
37	RBMX2 (RNA binding motif protein X-linked 2)	1.01	migration z between -2 and 2; enough cells	1.15	4018
38	SMG5 (SMG5 nonsense mediated mRNA decay factor)	1.25	migration z between -2 and 2; enough cells	1.21	5650
39	SLC4A1AP	-0.52	migration z between -2 and 2; enough cells	0.75	7947
40	SLC26A4	0.28	migration z between -2 and 2; enough cells	0.86	5486
41	FAM78A (family with sequence similarity 78 member A)	-1.37	migration z between -2 and 2; enough cells	0.53	5896
42	BOLA2B (bolA family member 2B)	0.43	migration z between -2 and 2; enough cells	1	5812
43	CARD10 (caspase recruitment domain family member 10)	-2.36 (active)	migration z below -2; enough cells	0.35	3589
44	ITPRID1 (ITPR interacting domain containing 1)	-0.44	migration z between -2 and 2; enough cells	0.77	6004
45	CFC1B (cryptic, EGF-CFC family member 1B)	-0.33	migration z between -2 and 2; enough cells	0.8	6324
46	PHF21A (PHD finger protein 21A)	-0.1	migration z between -2 and 2; enough cells	0.78	5588
47	VPS53 (VPS53 subunit of GARP complex)	-0.2	migration z between -2 and 2; enough cells	0.84	5452
48	LONP1 (lon peptidase 1, mitochondrial)	0.47	migration z between -2 and 2; enough cells	0.9	5794
49	SIK2 (salt inducible kinase 2)	-0.7	migration z between -2 and 2; enough cells	0.67	5392
50	ATP6V1E2 (ATPase H+ transporting V1 subunit E2)	-1.43	migration z between -2 and 2; enough cells	0.52	5532
51	CCDC141 (coiled-coil domain containing 141)	-0.48	migration z between -2 and 2; enough cells	0.76	6833
52	H3C2 (H3 clustered histone 2)	-0.14	migration z between -2 and 2; enough cells	0.84	5090
53	NDUFB2 (NADH:ubiquinone oxidoreductase subunit B2)	-0.21	migration z between -2 and 2; enough cells	0.76	5605
54	SCPEP1 (serine carboxypeptidase 1)	0.94	migration z between -2 and 2; enough cells	0.98	5915
55	PPIL1 (peptidylprolyl isomerase like 1)	-0.36	migration z between -2 and 2; enough cells	0.74	5652
56	ZMYM5 (zinc finger MYM-type containing 5)	1.25	migration z between -2 and 2; enough cells	1.21	6046
57	TRIM51EP (tripartite motif-containing 51E, pseudogene)	-0.52	migration z between -2 and 2; enough cells	0.7	6550

Hits (from the list above):
gene	migration robust z-score	migration class with cell-count check	migration relative to mock	nuclei per well, duplicate mean
LGALS1 (galectin 1)	-2.62 (active)	migration z below -2; enough cells	0.3	3640
SGIP1 (SH3GL interacting endocytic adaptor 1)	2.69 (active)	migration z above 2; enough cells	1.58	7124
TLL2 (tolloid like 2)	-3.01 (active)	migration z below -2; enough cells	0.22	4245
CARD10 (caspase recruitment domain family member 10)	-2.36 (active)	migration z below -2; enough cells	0.35	3589
